{"source": "PubChem BioAssay AID248", "about": "(DTP/NCI, 2004)", "tested_on": "L1210 leukemia ip in BDF1 mice, survival T/C", "assay": "NCI In Vivo Anticancer Drug Screen. Data for tumor model L1210 Leukemia (intraperitoneal) in B6D2F1 (BDF1) mice", "details": "T/C endpoint: mean survival time, higher T/C = longer survival", "key": {"[1]": {"details": "dose: 100.0 mg/kg/injection, schedule: Q01DX001 (ip), vehicle: saline"}, "[2]": {"details": "dose: 200.0 mg/kg/injection, schedule: Q01DX001 (ip), vehicle: saline"}, "[3]": {"details": "dose: 400.0 mg/kg/injection, schedule: Q01DX001 (ip), vehicle: saline"}, "[4]": {"details": "dose: 300.0 mg/kg/injection, schedule: Q01DX001 (ip), vehicle: saline"}}, "note": "The list shows only some results of the screen, not a fair sample: it gathers tests that were run many times, whatever their T/C, doses with no T/C, and many T/C values between a quarter and a half above the control. Further doses and runs are listed elsewhere. T/C: endpoint of the treated group in % of that of the vehicle group. Some entries give survivors of the animals treated and no T/C: the source holds a T/C of zero for them, seemingly a mark for toxic or unscored doses. Some doses without a T/C left all or most animals alive at the check, yet need not have been tolerated: the source hardly ever lists a survival T/C far under the control, and the zero likely stands for such cases as well. Survivors were counted at the toxicity check, usually on the fifth day, unless a day is given; later deaths do not show. Schedule codes are those of the source, taken here to give the interval after Q, in days (D) or hours (H), and the number of doses after X. Some structures stand for samples that the source files as different forms (salt, stereo form or complex); doses refer to the form tested. Some entries hold several experiments; the values are given in rising order. Where survival is the endpoint, this PubChem deposit counts one and a half times the control or more as active, and values a quarter to a half above the control carry no call in these data; other NCI protocols may use other cut-offs. Some T/C values carry the count of animals alive at the toxicity check (mostly the fifth day); where none is given, no animal had died by that day."}
{"molecule": "CS(=O)(=O)OCCN(CCOS(C)(=O)=O)c1ccc(N=O)c(F)c1", "values": [{"measurement": "T/C", "setting": "dose: 5.0 mg/kg/injection, schedule: Q01DX001 (ip), vehicle: saline", "value": "137 and 146 % of control"}, {"measurement": "T/C", "setting": "dose: 10.0 mg/kg/injection, schedule: Q01DX001 (ip), vehicle: saline", "value": "137 and 145 % of control [5 of 6 alive]"}, {"measurement": "T/C", "setting": "dose: 15.0 mg/kg/injection, schedule: Q01DX001 (ip), vehicle: saline", "value": "135 % of control [5 of 6 alive]"}, {"measurement": "T/C", "setting": "dose: 20.0 mg/kg/injection, schedule: Q01DX001 (ip), vehicle: saline", "value": "133 % of control"}, {"measurement": "survivor count", "setting": "dose: 50.0 mg/kg/injection, schedule: Q01DX001 (ip), vehicle: saline", "value": "1 of 4"}, {"measurement": "survivor count", "setting": "[1]", "value": "0 of 4"}, {"measurement": "survivor count", "setting": "[2]", "value": "0 of 4"}, {"measurement": "survivor count", "setting": "[3]", "value": "0 of 4"}]}
{"molecule": "CCCCCCCCCCCC[N+](C)(C)C.C[As](C)(=O)[O-]", "values": [{"measurement": "survivor count", "setting": "dose: 50.0 mg/kg/injection, schedule: Q01DX009 (ip), vehicle: saline", "value": "0 of 3"}, {"measurement": "survivor count", "setting": "dose: 100.0 mg/kg/injection, schedule: Q01DX009 (ip), vehicle: saline", "value": "0 of 3 and 5 of 6"}, {"measurement": "survivor count", "setting": "dose: 200.0 mg/kg/injection, schedule: Q01DX009 (ip), vehicle: saline", "value": "0 of 6"}, {"measurement": "survivor count", "setting": "dose: 400.0 mg/kg/injection, schedule: Q01DX009 (ip), vehicle: saline", "value": "0 of 6"}]}
{"molecule": "C#CC(C)OCC1CO1", "note": "(stereo not drawn)", "values": [{"measurement": "survivor count", "setting": "dose: 400.0 mg/kg/injection, schedule: Q04DX003 (ip), vehicle: saline sonified", "value": "1 of 6"}]}
{"molecule": "c1cc(N2CCOCC2)cc(NC2CCCCC2)n1", "values": [{"measurement": "survivor count", "setting": "[1]", "value": "3 of 6"}, {"measurement": "survivor count", "setting": "[2]", "value": "1 of 6"}, {"measurement": "survivor count", "setting": "[3]", "value": "0 of 6"}]}
{"molecule": "CCCCC(=O)NC1CCCCC1", "values": [{"measurement": "survivor count", "setting": "[4]", "value": "0 of 6"}]}
{"molecule": "Cc1ccc(C[As+](c2ccccc2)(c2ccccc2)c2ccccc2)cc1", "values": [{"measurement": "survivor count", "setting": "dose: 75.0 mg/kg/injection, schedule: Q01DX001 (ip), vehicle: saline", "value": "0 of 6"}, {"measurement": "survivor count", "setting": "dose: 150.0 mg/kg/injection, schedule: Q01DX001 (ip), vehicle: saline", "value": "0 of 6"}, {"measurement": "survivor count", "setting": "[4]", "value": "0 of 6"}]}
{"molecule": "c1ccc(NC2CCN(C3(c4ccccc4)CCCCC3)CC2)cc1", "values": [{"measurement": "survivor count", "setting": "dose: 200.0 mg/kg/injection, schedule: Q04DX002 (ip), vehicle: saline", "value": "0 of 3"}, {"measurement": "survivor count", "setting": "dose: 400.0 mg/kg/injection, schedule: Q04DX002 (ip), vehicle: saline", "value": "0 of 3"}]}
{"molecule": "O=NN(CCF)C(=O)NC1CCSCC1", "values": [{"measurement": "survivor count", "setting": "dose: 81.0 mg/kg/injection, schedule: Q01DX001 (ip), vehicle: other", "value": "5 of 10"}, {"measurement": "survivor count", "setting": "dose: 121.0 mg/kg/injection, schedule: Q01DX001 (ip), vehicle: other", "value": "2 of 10"}]}
{"molecule": "Nc1cc(N)c2cccnc2c1O", "values": [{"measurement": "survivor count", "setting": "dose: 8.0 mg/kg/injection, schedule: Q01DX015 (ip), vehicle: saline", "value": "3 of 6"}, {"measurement": "survivor count", "setting": "dose: 16.0 mg/kg/injection, schedule: Q01DX015 (ip), vehicle: saline", "value": "0 of 6"}, {"measurement": "survivor count", "setting": "[1]", "value": "0 of 6"}, {"measurement": "survivor count", "setting": "[2]", "value": "0 of 6"}, {"measurement": "survivor count", "setting": "[3]", "value": "0 of 6"}]}
{"molecule": "O=S(=O)(Cc1ccccc1)N1CCCCC1", "values": [{"measurement": "survivor count", "setting": "dose: 400.0 mg/kg/injection, schedule: Q04DX002 (ip), vehicle: Klucel (hydroxypropylcellulose) (HPC)", "value": "2 of 3"}]}
{"molecule": "C/C(=N/N(C)C)c1ccc(Br)cc1", "values": [{"measurement": "survivor count", "setting": "dose: 100.0 mg/kg/injection, schedule: Q01DX009 (ip), vehicle: Klucel (hydroxypropylcellulose) (HPC)", "value": "4 of 6"}, {"measurement": "survivor count", "setting": "dose: 200.0 mg/kg/injection, schedule: Q01DX009 (ip), vehicle: Klucel (hydroxypropylcellulose) (HPC)", "value": "3 of 6"}]}
{"molecule": "CSc1nc(C)c(C)[n+](C)n1", "values": [{"measurement": "survivor count", "setting": "dose: 300.0 mg/kg/injection, schedule: Q01DX001 (ip), vehicle: saline with Tween-80", "value": "1 of 6"}]}
{"molecule": "CN1CCC=C(CN2c3ccccc3Sc3ccc(Cl)cc32)C1", "values": [{"measurement": "T/C", "setting": "dose: 25.0 mg/kg/injection, schedule: Q04DX003 (ip), vehicle: saline", "value": "128 % of control"}, {"measurement": "survivor count", "setting": "dose: 100.0 mg/kg/injection, schedule: Q04DX003 (ip), vehicle: saline", "value": "6 of 6"}, {"measurement": "survivor count", "setting": "dose: 200.0 mg/kg/injection, schedule: Q04DX003 (ip), vehicle: saline", "value": "2 of 6"}, {"measurement": "survivor count", "setting": "dose: 400.0 mg/kg/injection, schedule: Q04DX003 (ip), vehicle: saline", "value": "0 of 6"}]}
{"molecule": "Cc1cccc(C(=O)NCC(=O)O)c1", "values": [{"measurement": "survivor count", "setting": "dose: 400.0 mg/kg/injection, schedule: Q04DX002 (ip), vehicle: saline with Tween-80", "value": "1 of 3"}]}
